Results published in article PMC8338941.
No constants are given. Whether binding was seen depends on the method and setting. In cells and extracts the contact can be indirect. Some binding calls cover weakened binding; strength is not graded here.

Biological target: T1, Nop7-TAP (S. cerevisiae) (UniProt P53261)
T1 sequence: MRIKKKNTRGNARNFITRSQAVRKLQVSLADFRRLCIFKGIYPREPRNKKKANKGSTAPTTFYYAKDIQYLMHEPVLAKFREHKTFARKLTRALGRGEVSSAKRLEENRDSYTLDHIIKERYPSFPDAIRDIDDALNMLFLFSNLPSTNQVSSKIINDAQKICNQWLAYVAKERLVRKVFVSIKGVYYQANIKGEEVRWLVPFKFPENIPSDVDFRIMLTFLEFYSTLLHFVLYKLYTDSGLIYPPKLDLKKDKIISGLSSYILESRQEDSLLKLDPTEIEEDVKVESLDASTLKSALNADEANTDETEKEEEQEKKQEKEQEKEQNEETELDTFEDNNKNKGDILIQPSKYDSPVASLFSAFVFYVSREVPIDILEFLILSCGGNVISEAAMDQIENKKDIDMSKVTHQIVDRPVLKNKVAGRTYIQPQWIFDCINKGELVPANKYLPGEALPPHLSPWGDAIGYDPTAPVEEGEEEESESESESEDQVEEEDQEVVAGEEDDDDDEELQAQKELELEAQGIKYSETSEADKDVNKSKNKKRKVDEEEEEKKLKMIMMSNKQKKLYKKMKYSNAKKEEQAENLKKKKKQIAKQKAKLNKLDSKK
Assay: co-IP; Nop7-TAP particles isolated from WT and puf6∆ cells grown at 20 °C; NuPAGE 4-12% Bis-Tris gel, Silver staining and Western analysis

binding: binds
B1: Sda1 (protein, UniProt P53313 1-767)
chain: MGRRSRAAMLPTNIILLQNLVKRDPESYQEEFLQQYAHYESLRDIFMLNGLAGGDSAAATNGLDVGNGSSTMAGTNGTTMSTSTSQLIELVGFVSQVCSCFPRETANFPSELKQLLLEHHKSLPFELKEKILSCLTMLRNKDVITAEELIQSLFPLLVAYSSHGNSLGVNSHAKELRKIIYTNLISLLKSCNTNGKNQKLNKSTQAVCFNLLDQPDSQGIWATKLTRELWRRGIWDDSRTVEIMTQAALHQDVKIVMSGVMFFLDADREREENFEENSEDEDGFDLDALRHKMQVNKKTGRRGKKLENAIKTVKKKKKNGPGAPQGYLNFSAIHLLRDPQGFAEKLFKEHLSGKTKNKFDMEQKISLMQLLSRLIGTHKLIVLGIYTFFLKYLTPKQRDVTRIMSACAQACHDLVPPEVINVMVRKIADEFVSDGVANEVAAAGINTIREICSRAPLAIDEILLQDLVEYKGSKAKGVNMAAKSLIALYRDVAPEMLKKKDRGKNAAMEVQEAKKGGKDSKRPQFGADNSVQGIAGIELLAKWKKEHGEESENEDADANWEVDVDSEEDDVDGEWVTMDSDKEYDVDMEDSDDEKDNAKGKESDSDLELSDDDDEKEVKDEQEDADIDPEAAFREIASTRILTPADFAKLQELRNEESVAKIMGIHKQDKREELVDASTLTGPIKYKQSREERLQKVLEGREGRDKFGSRRGKRDNMRSTTNREKERRKNFVMSIHKRSVRGKQKMSLRDKQKVLRAHITKQKKKGY
